Test: Blind sensorial perception testing of catechin, epicatechin and gallocatechin fortified water (Example 5)
Conditions: for Colour Rating (score) / Odour Rating (score) / Taste Rating (score): 10-point scale, 10 no differences vs pure water, 0 intolerable changes

Structure (SMILES): Oc1cc(O)c2c(c1)O[C@H](c1cc(O)c(O)c(O)c1)[C@@H](O)C2 [Gallocatechin, gallocatechin]
- Colour Rating (descriptor) (0.05 mg/ml in deionized water): No colour
- Odour Rating (descriptor) (0.05 mg/ml in deionized water): No odour
- Taste Rating (descriptor) (0.05 mg/ml in deionized water): No taste
- Colour Rating (score) (0.05 mg/ml): (10.0)
- Odour Rating (score) (0.05 mg/ml): (10.0)
- Taste Rating (score) (0.05 mg/ml): (10.0)
- Colour Rating (descriptor) (0.1 mg/ml in deionized water): No colour
- Odour Rating (descriptor) (0.1 mg/ml in deionized water): No odour
- Taste Rating (descriptor) (0.1 mg/ml in deionized water): No taste
- Colour Rating (score) (0.1 mg/ml): (10.0)
- Odour Rating (score) (0.1 mg/ml): (10.0)
- Taste Rating (score) (0.1 mg/ml): (10.0)
- Colour Rating (descriptor) (0.5 mg/ml in deionized water): No colour
- Odour Rating (descriptor) (0.5 mg/ml in deionized water): No odour
- Taste Rating (descriptor) (0.5 mg/ml in deionized water): No taste
- Colour Rating (score) (0.5 mg/ml): (10.0)
- Odour Rating (score) (0.5 mg/ml): (10.0)
- Taste Rating (score) (0.5 mg/ml): (10.0)
- Colour Rating (descriptor) (1.0 mg/ml in deionized water): No colour
- Odour Rating (descriptor) (1.0 mg/ml in deionized water): No odour
- Taste Rating (descriptor) (1.0 mg/ml in deionized water): Light biter
- Colour Rating (score) (1.0 mg/ml): (10.0)
- Odour Rating (score) (1.0 mg/ml): (10.0)
- Taste Rating (score) (1.0 mg/ml): (8.0)
- Colour Rating (descriptor) (2.0 mg/ml in deionized water): No colour
- Odour Rating (descriptor) (2.0 mg/ml in deionized water): No odour
- Taste Rating (descriptor) (2.0 mg/ml in deionized water): Bitter
- Colour Rating (score) (2.0 mg/ml): (10.0)
- Odour Rating (score) (2.0 mg/ml): (10.0)
- Taste Rating (score) (2.0 mg/ml): (6.0)
- Difference between fortified water and control (pure) water, summary of blind testing (0.05-2.0 mg/ml): Difference in taste only becomes discernible at higher concentrations

From patent publication US20250241889A1, “FORTIFIED WATER” (Lovaness Limited, priority 2021, published 2025)
